Laboratory results as given in patent US5407823A, “Polypeptides having a dopaminergic receptor activity, nucleic acids coding for these polypeptides and use of these polypeptides for the screening of substances active on these polypeptides” (priority 1990, dated 1995).

Chains of the proteins cited; added tags and fusions are not shown.
UniProt P19020, whole entry: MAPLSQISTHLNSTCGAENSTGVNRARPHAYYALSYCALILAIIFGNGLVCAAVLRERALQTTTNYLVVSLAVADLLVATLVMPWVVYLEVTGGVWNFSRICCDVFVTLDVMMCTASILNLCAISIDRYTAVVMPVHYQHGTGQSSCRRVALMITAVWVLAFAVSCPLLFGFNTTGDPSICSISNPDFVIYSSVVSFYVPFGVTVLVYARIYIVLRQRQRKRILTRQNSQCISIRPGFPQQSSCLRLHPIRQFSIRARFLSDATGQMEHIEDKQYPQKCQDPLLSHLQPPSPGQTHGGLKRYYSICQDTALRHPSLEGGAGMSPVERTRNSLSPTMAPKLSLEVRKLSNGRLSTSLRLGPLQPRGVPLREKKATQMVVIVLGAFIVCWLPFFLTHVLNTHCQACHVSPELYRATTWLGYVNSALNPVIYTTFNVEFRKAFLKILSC

Biological target: T1, D-3 receptor expressed in CHO cells (Rattus norvegicus, UniProt P19020)
T1 construct: expressed in transfected cells
Experiment: Inhibition of 125I-iodosulpride binding to membranes of transfected CHO cells (D-3)
Source text: As far as the measurement of the affinity of the agonists or antagonists towards the polypeptides of the invention is concerned, it may be made under the following conditions:
The terms agonists and antagonists refer to the actions of the medicines on the D-2 receptors.
The β2 adrenergic receptor is excised from pSV β2 -MDH by digestions with HindIII and EcoRI and replaced by a SmaI-EcoRI restriction fragment of the clone of the D-2A receptor by using a blunt-ended HindIII nucleotide adaptor leading to the plasmid pSV D-2. The vector needed to express the D-3 receptor is obtained by replacing the HindIII-BglII restriction fragment of pSV D-2 by a EcoRI-BglII restriction fragment of the clone RT-PCR B, by using a HindIII-EcoRI oligonucleotide adaptor leading to the plasmid pSV D-3. […] The stable transfectants are selected in a culture medium (Dulbecco's Modified Eagle medium) not containing hypoxanthine and thymidine.

CSc1ccc2c(c1)N(CCC1CCCCN1C)c1ccccc1S2 (stereo not shown) [Thioridazine]
Ki: 7.9 ± 0.8 nM
